Results as given in PubChem BioAssay AID192 (DTP/NCI, 2004).
The list shows only some results of the screen, not a fair sample: it is rich in T/C values a quarter to a half above the control, in often repeated tests (any T/C) and in doses without a T/C. Other doses and runs of a compound stand elsewhere. T/C is the treated group as % of the vehicle group. Some entries give survivors of the animals treated and no T/C: the source holds a T/C of zero for them, seemingly a mark for toxic or unscored doses. Some doses without a T/C left all or most animals alive at the check, yet need not have been tolerated: the source hardly ever lists a survival T/C far under the control, and the zero likely stands for such cases as well. Survivors were counted at the toxicity check, usually on the fifth day, unless a day is given; later deaths do not show. Schedules are NCI's codes, taken here to give the interval after Q, in days (D) or hours (H), and the number of doses after X. Some doses were run more than once; their values stand side by side, smallest first. For survival time, the PubChem record calls one and a half times the control and up active, and a quarter to a half above the control has no call in these data; cut-offs in other NCI protocols can differ.

System: BDF1 mice, B16 melanoma ip, median survival T/C
Assay: NCI In Vivo Anticancer Drug Screen. Data for tumor model B16 Melanoma (intraperitoneal) in B6D2F1 (BDF1) mice
Conditions: T/C endpoint: median survival time, higher T/C = longer survival
Procedure, shortened: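 In this screen, activity was judged from survival or tumor size in treated versus vehicle-treated tumor-bearing mice, reported as T/C.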

[1] = dose: 200.0 mg/kg/injection, schedule: Q01DX009 (ip), vehicle: water
[2] = dose: 400.0 mg/kg/injection, schedule: Q01DX009 (ip), vehicle: saline with Tween-80
[3] = dose: 4.0 mg/kg/injection, schedule: Q01DX009 (ip), vehicle: water
[4] = dose: 100.0 mg/kg/injection, schedule: Q01DX009 (ip), vehicle: saline
[5] = dose: 200.0 mg/kg/injection, schedule: Q01DX009 (ip), vehicle: saline
[6] = dose: 400.0 mg/kg/injection, schedule: Q01DX009 (ip), vehicle: saline
[7] = dose: 800.0 mg/kg/injection, schedule: Q04DX003 (ip), vehicle: water
[8] = dose: 100.0 mg/kg/injection, schedule: Q01DX009 (ip), vehicle: Klucel (hydroxypropylcellulose) (HPC)
[9] = dose: 400.0 mg/kg/injection, schedule: Q01DX009 (ip), vehicle: Klucel (hydroxypropylcellulose) (HPC)
[10] = dose: 200.0 mg/kg/injection, schedule: Q01DX009 (ip), vehicle: Klucel (hydroxypropylcellulose) (HPC)
[11] = dose: 100.0 mg/kg/injection, schedule: Q01DX009 (ip), vehicle: saline with Tween-80

Q: How did the survivor count (dose: 100.0 mg/kg/injection, schedule: Q01DX009 (ip), vehicle: water) turn out when `CCCCn1ccnc1C` was run?
A: 0 of 10

Q: What about the survivor count [1] of the same compound?
A: 0 of 10

Q: `CC(=O)Nc1ccc(C)c(Cl)c1` was tested. Which survivor count [2] did it give?
A: 8 of 10

Q: What does the source list for `COc1ccc(S(=O)(=O)NC(=S)S)cc1`?
A: survivor count [1]: 6 of 10; survivor count (dose: 400.0 mg/kg/injection, schedule: Q01DX009 (ip), vehicle: water): 3 of 10

Q: With `CCC1=C[C@H]2CN(CCc3c([nH]c4ccccc34)[C@@](C(=O)OC)(c3cc4c(cc3OC)N(C)[C@H]3[C@@](O)(C(=O)OC)[C@H](OC(C)=O)[C@]5(CC)C=CCN6CC[C@]43[C@@H]65)C2)C1` as the compound, how does the T/C (dose: 0.2 mg/kg/injection, schedule: Q01DX009 (ip), vehicle: saline) read?
A: 127 % of control

Q: What about the T/C (dose: 0.25 mg/kg/injection, schedule: Q01DX009 (ip), vehicle: water, evaluated on day 45) of the same compound?
A: 125 % of control

Q: And the T/C (dose: 0.25 mg/kg/injection, schedule: Q01DX009 (ip), vehicle: water, evaluated on day 60)?
A: 126 % of control

Q: And the T/C (dose: 0.4 mg/kg/injection, schedule: Q01DX009 (ip), vehicle: saline)?
A: 128 % of control

Q: And the T/C (dose: 0.5 mg/kg/injection, schedule: Q01DX009 (ip), vehicle: water, evaluated on day 45)?
A: 140 % of control

Q: What about the T/C (dose: 0.5 mg/kg/injection, schedule: Q01DX009 (ip), vehicle: water, evaluated on day 60) of the same compound?
A: 108, 133, 142 % of control

Q: What about the T/C (dose: 0.5 mg/kg/injection, schedule: Q04DX003 (ip), vehicle: water) of the same compound?
A: 137 % of control

Q: What about the T/C (dose: 1.0 mg/kg/injection, schedule: Q01DX009 (ip), vehicle: water, evaluated on day 45) of the same compound?
A: 154 % of control

Q: What about the T/C (dose: 1.0 mg/kg/injection, schedule: Q01DX009 (ip), vehicle: water, evaluated on day 60) of the same compound?
A: 137, 140, 183 % of control

Q: And the T/C (dose: 1.0 mg/kg/injection, schedule: Q04DX003 (ip), vehicle: water)?
A: 139 % of control

Q: And the T/C (dose: 2.0 mg/kg/injection, schedule: Q01DX009 (ip), vehicle: water, evaluated on day 45)?
A: 171 % of control

Q: What about the T/C (dose: 2.0 mg/kg/injection, schedule: Q01DX009 (ip), vehicle: water, evaluated on day 60) of the same compound?
A: 137 and 152 % of control

Q: And the survivor count (dose: 2.0 mg/kg/injection, schedule: Q01DX009 (ip), vehicle: water)?
A: 10 of 10

Q: And the T/C (dose: 2.0 mg/kg/injection, schedule: Q04DX003 (ip), vehicle: water)?
A: 142 % of control

Q: And the survivor count (dose: 3.2 mg/kg/injection, schedule: Q01DX009 (ip), vehicle: saline)?
A: 6 of 6

Q: And the T/C [3]?
A: 133 % of control

Q: What about the survivor count [3] of the same compound?
A: 9 of 10

Q: And the survivor count (dose: 6.4 mg/kg/injection, schedule: Q01DX009 (ip), vehicle: saline)?
A: 4 of 6

Q: What about the survivor count (dose: 8.0 mg/kg/injection, schedule: Q01DX009 (ip), vehicle: water) of the same compound?
A: 2 of 10 and 10 of 10

Q: And the T/C (dose: 8.0 mg/kg/injection, schedule: Q04DX003 (ip), vehicle: water)?
A: 143 % of control

Q: And the survivor count (dose: 12.8 mg/kg/injection, schedule: Q01DX009 (ip), vehicle: saline)?
A: 0 of 6

Q: What does the source list for `O=C1C=C(SCCO)C(=O)c2ccccc21`?
A: survivor count (dose: 0.75 mg/kg/injection, schedule: Q01DX009 (ip), vehicle: saline with Tween-80): 6 of 6; survivor count (dose: 1.5 mg/kg/injection, schedule: Q01DX009 (ip), vehicle: saline with Tween-80): 6 of 6; survivor count (dose: 3.0 mg/kg/injection, schedule: Q01DX009 (ip), vehicle: saline with Tween-80): 6 of 6; T/C (dose: 22.5 micrograms/kg/injection, schedule: Q01DX009 (ip), vehicle: saline with Tween-80): 135 % of control; survivor count (dose: 37.5 micrograms/kg/injection, schedule: Q01DX009 (ip), vehicle: saline with Tween-80): 6 of 6; survivor count (dose: 75.0 micrograms/kg/injection, schedule: Q01DX009 (ip), vehicle: saline with Tween-80): 6 of 6

Q: For `CC(C)OCc1c(N)nc(=S)[nH]c1C(=O)O`, which survivor count [4] is on record?
A: 6 of 10

Q: With `CN(C)C1CC1c1ccccc1` (centres undefined) as the compound, how does the survivor count [5] read?
A: 0 of 10

Q: What about the survivor count [6] of the same compound?
A: 0 of 10

Q: Which results are given for `CC(CN(C)C)CN1c2ccccc2Sc2ccc(C(F)(F)F)cc21` (centres undefined)?
A: survivor count (dose: 25.0 mg/kg/injection, schedule: Q01DX009 (ip), vehicle: saline): 5 of 10; survivor count (dose: 50.0 mg/kg/injection, schedule: Q01DX009 (ip), vehicle: saline): 0 of 10; survivor count [4]: 0 of 10; survivor count [5]: 0 of 10; survivor count [6]: 0 of 10

Q: Which results are given for `C[C@H](CN1CC(=O)NC(=O)C1)N1CC(=O)NC(=O)C1`?
A: T/C (dose: 25.0 mg/kg/injection, schedule: Q04DX003 (ip), vehicle: water): 137 % of control; survivor count (dose: 32.0 mg/kg/injection, schedule: Q01DX009 (ip), vehicle: saline): 10 of 10; T/C (dose: 50.0 mg/kg/injection, schedule: Q04DX003 (ip), vehicle: water): 130 % of control; survivor count (dose: 64.0 mg/kg/injection, schedule: Q01DX009 (ip), vehicle: saline): 10 of 10; T/C (dose: 64.0 mg/kg/injection, schedule: Q01DX009 (ip), vehicle: water): 125 % of control; T/C (dose: 100.0 mg/kg/injection, schedule: Q04DX003 (ip), vehicle: water): 127 % of control; T/C (dose: 200.0 mg/kg/injection, schedule: Q04DX003 (ip), vehicle: water): 142 % of control; survivor count (dose: 256.0 mg/kg/injection, schedule: Q01DX009 (ip), vehicle: water): 9 of 10; survivor count (dose: 512.0 mg/kg/injection, schedule: Q01DX009 (ip), vehicle: water): 10 of 10; T/C [7]: 130 % of control; survivor count [7]: 10 of 10

Q: For `CCOc1cc(C2=NNc3n[nH]c(=S)n3N2)ccc1O`, which survivor count [8] is on record?
A: 10 of 10

Q: `CCCC(NC(=O)C(C)Br)C(=O)O` (centres undefined) was tested. Which survivor count (dose: 200.0 mg/kg/injection, schedule: Q01DX009 (ip), vehicle: saline with Tween-80) did it give?
A: 10 of 10

Q: How did the survivor count (dose: 50.0 mg/kg/injection, schedule: Q01DX011 (ip), vehicle: saline with Tween-80) turn out when `O=c1[nH]cc(F)c(=O)n1-c1ccco1` was run?
A: 9 of 9

Q: With `CCC[CH2][Sn]1([CH2]CCC)[O]C(=O)C[S]1` as the compound, how does the survivor count (dose: 4.0 mg/kg/injection, schedule: Q01DX009 (ip), vehicle: saline with Tween-80) read?
A: 8 of 10

Q: How did the survivor count [5] turn out when `CCN(CC)C(C)CN1c2ccccc2Sc2ccccc21` (centres undefined) was run?
A: 10 of 10

Q: What about the survivor count [6] of the same compound?
A: 0 of 10

Q: For `Cc1ccc(Cl)cc1NC(=O)c1ccccc1Cl`, which survivor count [9] is on record?
A: 10 of 10

Q: With `COc1ccc(/C=C2\C(=O)OC(=O)\C2=C\c2ccc(OC)c(OC)c2)cc1OC` as the compound, how does the survivor count (dose: 50.0 mg/kg/injection, schedule: Q01DX009 (ip), vehicle: Klucel (hydroxypropylcellulose) (HPC)) read?
A: 10 of 10

Q: And the survivor count [8]?
A: 9 of 10

Q: What about the survivor count [10] of the same compound?
A: 7 of 10

Q: And the survivor count [9]?
A: 1 of 10

Q: Which T/C (dose: 15.0 mg/kg/injection, schedule: Q01DX009 (ip), vehicle: saline with Tween-80) does the source give for `CC(=O)Oc1ccc(Nc2c3ccccc3nc3ccccc23)cc1` here?
A: 125 and 138 % of control

Q: What about the T/C (dose: 20.0 mg/kg/injection, schedule: Q01DX009 (ip), vehicle: saline with Tween-80) of the same compound?
A: 145 % of control

Q: And the survivor count (dose: 44.0 mg/kg/injection, schedule: Q01DX009 (ip), vehicle: saline with Tween-80)?
A: 10 of 10

Q: And the survivor count (dose: 60.0 mg/kg/injection, schedule: Q01DX009 (ip), vehicle: saline with Tween-80)?
A: 9 of 10

Q: And the survivor count (dose: 66.0 mg/kg/injection, schedule: Q01DX009 (ip), vehicle: saline with Tween-80)?
A: 10 of 10

Q: What about the survivor count [11] of the same compound?
A: 8 of 10

Q: What about the survivor count (dose: 150.0 mg/kg/injection, schedule: Q01DX009 (ip), vehicle: saline with Tween-80) of the same compound?
A: 4 of 10

Q: For `CC(=O)Oc1cccc(C)c1`, which survivor count [11] is on record?
A: 10 of 10

Q: And the survivor count [2]?
A: 0 of 10

Q: What does the source list for `O=C1C=C(Nc2ccccc2)c2ccccc2C1=O`?
A: survivor count [8]: 8 of 10; survivor count [10]: 7 of 10 and 10 of 10; survivor count [9]: 9 of 10
